Data: the supplement of paper PMC5407854, “Inhibitor of ppGalNAc-T3-mediated O-glycosylation blocks cancer cell invasiveness and lowers FGF23 levels” (eLife, 2017)
Over roughly 1,700 compounds, “T3 sensor activation Q score (MG/GFP ratio z-score vs DMSO controls)” has its median near 0.25; the highest 2% begin near 1.9. This is one part of the list.

test system: ppGalNAc-T3 sensor; assay: T3 sensor activation Q score (MG/GFP ratio z-score vs DMSO controls) (SD units); higher = more sensor activation (inhibition of ppGalNAc-T3 glycosylation); details: HEK293 sensor cells; 10 µM; 6 h
Procedure: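 Cells were treated with compound at 10 uM for 6 h, then MG/GFP ratio was read by flow cytometry (10,000 cells per well, duplicate wells). Q = (R - R_neg)/SD_neg relative to DMSO vehicle controls; the signal rises when the glycosyltransferase is inhibited.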

| SMILES | T3 sensor activation Q score |
| --- | --- |
| Clc1ccc(SCNc2ccccc2Cl)cc1 | -0.2 |
| N=C(N)n1c(N)nc2ccccc2c1=O | -0.55 |
| C#CCCOC(=O)Nc1ccccc1 | -0.85 |
| Oc1ccc(/C=C/c2cnccn2)cc1 | 0.15 |
| CC12C(=O)N(c3nccs3)C(=O)C1(C)C1CCC2O1 (stereo not drawn) | -0.85 |
| CCOC(=O)c1c(N)ssc1=S | 0.35 |
| COC(=O)Cc1[nH]c(=O)[nH]c1C(=O)OC | -0.2 |
| O=C1NC(=O)N2CCSC2(Cc2ccccc2)N1 (stereo not drawn) | 1.05 |
| C=C(C)C(=O)Oc1ccc(N=Nc2ccc(C)cc2)ccc1=O | -1.2 |
| Cc1cc(OCCCCOc2ccc(C#N)cc2)ccc1[N+](=O)[O-] | -0.75 |
| Cc1cn(-c2cc(NC(=O)c3ccc(C)c(Nc4nccc(-c5cccnc5)n4)c3)cc(C(F)(F)F)c2)cn1 | 0.5 |
| O=[N+]([O-])c1cccc(/C=C/c2ccccn2)c1 | -0.15 |
| CC12CCC(C(=Nc3ccc(N=C4C(=O)C5(C)CCC4C5(C)C)cc3)C1=O)C2(C)C | -0.3 |
| CCC(CC)NCCOC(=O)c1ccc([N+](=O)[O-])cc1 | -1.45 |
| OC(C#Cc1ccccc1)(c1ccccc1)c1ccccc1 | 0.2 |
| CC1=CC(C)(C)NC(=S)N1c1cccc2cc(S(=O)(=O)O)ccc12 | 1.4 |
| CN1C(=O)CC2(C)C1=CCc1scnc12 (stereo not drawn) | 1.2 |
| Cn1c(=O)c2[nH]c(SCc3ccccn3)nc2n(C)c1=S | 0.45 |
| O=C(N(c1ccccc1)c1ccccc1)N(c1ccccc1)c1ccccc1 | 1 |
| O=[N+]([O-])c1ccc(Sc2cccc[n+]2[O-])c2nonc12 | -1.75 |
| C1CCCC(NC2=NCCO2)CCC1 | 0.2 |
| CC(C)(CO)N1CCN(C(=S)Nc2ccccc2)CC1 | 0.55 |
| O=c1cc(-c2ccc(O)cc2)oc2c(O)c(O)c(O)c(O)c12 | 0.4 |
| Cc1ccc(Nc2n[nH]c(=S)s2)cc1F | -0.1 |
| c1ccc(-c2nc[nH]c2-c2ccccc2)cc1 | 0.1 |

| SMILES | T3 sensor activation Q score |
| --- | --- |
| COc1ccn(C2CCCCO2)c(=O)n1 (stereo not drawn) | 1.6 |
| CC12CCC(C1)C(C)(C)C2OC(=O)c1ccccc1C(=O)O (stereo not drawn) | 0.1 |
| O=c1[nH]c(=O)n2ncnc2[nH]1 | -0.65 |
| CCS(=O)(=O)C1C(=O)N(C)C(S(=O)(=O)CC)C(=O)N1C (stereo not drawn) | 0.95 |
| CC1=CC(=O)Nc2cncnc2N1 | -0.3 |
| CC(=O)N1C(=O)C2(NCC(C)N2)c2ccccc21 (stereo not drawn) | -0.65 |
| CC(=O)O[C@H]1C(=O)[C@@]2(C)[C@H]([C@H](OC(=O)c3ccccc3)[C@]3(O)C[C@H](OC(=O)[C@H](O)[C@@H](NC(=O)c4ccccc4)c4ccccc4)C(C)=C1C3(C)C)[C@]1(OC(C)=O)CO[C@@H]1C[C@@H]2O | -1.25 |
| NC(N)=NC(=S)Nc1ccc(Cl)cc1 | 0.35 |
| O=[N+]([O-])c1ccc(/C=[N+](\[O-])CCO)o1 | -0.75 |
| CCCSc1ncnc2[nH]ncc12 | 1.45 |
| NC(=S)NC(=O)c1ccccc1 | 1.4 |
| Nc1o[nH]c(=O)c1C1CCCCC1 | 0.7 |
| COc1cccc2c1C(=O)c1c(O)c3c(c(O)c1C2=O)C[C@@](O)(C(=O)CO)C[C@@H]3O[C@H]1C[C@H](N)[C@@H](O)[C@H](C)O1 | 1.3 |
| COc1cc(CC(=O)C(=O)O)oc(=O)c1 | 0.6 |
| COc1cc(/C=N/Nc2nc3c([nH]2)c(=O)n(C)c(=O)n3C)ccc1O | 1.75 |
| CCCn1cnc2c(=S)nc(N)[nH]c21 | 0.75 |
| CCOC(=O)/C=C/c1nc(C(=O)OCC)c(C)c(=O)[nH]1 | 1.9 |
| COC(=O)C[C@](O)(CCCC(C)(C)O)C(=O)O[C@@H]1C(OC)=C[C@]23CCCN2CCc2cc4c(cc2[C@H]13)OCO4 | -0.45 |
| C=CCC(CC)C(=O)NC(=O)N1CCCc2ccccc21 (stereo not drawn) | 0.6 |
| CCOP(=O)(OCC)/C(C#N)=C/c1ccc(-c2ccc(F)cc2F)o1 | -0.15 |
| O=[N+]([O-])c1ccc2[nH]c3nc4ccccc4nc3c2c1 | 0.55 |
| CC(C)n1cc(C#N)c(N)n1 | 1.3 |
| C=CCOCCN(CC)CC | -0.05 |
| Cc1ccc(Cl)cc1NC(=O)c1cc2ccccc2cc1O | -1.65 |
| O=C(O)Cc1ccc(N=Nc2c(O)c(C(=O)O)cc3ccccc23)cc1 | 0.95 |

| SMILES | T3 sensor activation Q score |
| --- | --- |
| CC(C)c1ncc(CO)n1Cc1c(Cl)cccc1Cl | 1.85 |
| Cc1cc(O)cc2c1[C@H]1CC[C@]3(C)C(=O)CC[C@H]3[C@@H]1C=C2 | 0.75 |
| NS(=O)(=O)c1ccc(NC(=S)NC(=O)c2ccco2)cc1 | 1 |
| O=C(O)CSc1ccc(NC(=O)Nc2ccccc2F)cc1 | -0.45 |
| COCC(=O)Oc1cc(-c2ccc(C)cc2C)c(OC(=O)COC)c(-c2ccc(C)cc2C)c1 | 0.5 |
| O=C(C=Cc1ccc(O)c(O)c1)c1ccccc1O | -1.55 |
| CC(=O)Oc1ccc2cc(-c3ccccc3)c(=O)oc2c1 | 0.15 |
| CS(=O)(=O)OCCCCOS(C)(=O)=O | 0.5 |
| CC(C)CNC(=O)/C=C\C(=O)O | -0.1 |
| Cn1ncc2c(NCc3ccccc3)ncnc21 | -1.6 |
| COc1ccc(NC(=O)N2CCN(C(=O)Nc3ccc(OC)cc3)CC2)cc1 | 0.15 |
| O=C(Nc1cccc(Cl)c1)Nc1nccs1 | 0.3 |
| O=C1CC(c2ccc(O)cc2)Oc2cc(O)cc(O)c21 (stereo not drawn) | 0.3 |
| CNC(=O)c1cc(Oc2ccc(NC(=O)Nc3ccc(Cl)c(C(F)(F)F)c3)cc2)ccn1 | -4.4 |
| Cc1c([N+](=O)[O-])oc2c1C(=O)NCCC2 | 0.75 |
| COc1ccccc1NC(=O)Nc1cc(C(C)C)ccc1C | 0.15 |
| COc1cccc2c1C(=O)c1c(O)c3c(c(O)c1C2=O)C[C@@](O)(C(C)=O)C[C@@H]3O[C@H]1C[C@H](N)[C@H](O)[C@H](C)O1 | 0.9 |
| CN(C)c1ccc(/C=C(\C#N)C(=O)c2ccccc2)cc1 | -1.15 |
| CCC(C)NC(=O)c1cccc(C)c1 (stereo not drawn) | 1.35 |
| S=c1nc[nH]c2c1cnn2-c1ccccc1 | 0.25 |
| CC1=CC(=C2C=CC(=O)C=C2)C=C(C)N1C | -0.15 |
| CCNc1nc(Cl)nc(-c2cn(-c3ccccc3)c3ccccc23)n1 | 0.25 |
| c1ccc(N=NN2CCOCC2)cc1 | -0.75 |
| Clc1ccccc1/C=C/c1ccnc2ccccc12 | 0.85 |
| Cc1ccc(Nc2nc(Cl)nc3ncn(C)c23)c(C)c1 | 1.35 |

Entries shown so far that contain an NH in an aromatic ring (12):

| SMILES | T3 sensor activation Q score |
| --- | --- |
| COC(=O)Cc1[nH]c(=O)[nH]c1C(=O)OC | -0.2 |
| Cn1c(=O)c2[nH]c(SCc3ccccn3)nc2n(C)c1=S | 0.45 |
| Cc1ccc(Nc2n[nH]c(=S)s2)cc1F | -0.1 |
| c1ccc(-c2nc[nH]c2-c2ccccc2)cc1 | 0.1 |
| O=c1[nH]c(=O)n2ncnc2[nH]1 | -0.65 |
| CCCSc1ncnc2[nH]ncc12 | 1.45 |
| Nc1o[nH]c(=O)c1C1CCCCC1 | 0.7 |
| COc1cc(/C=N/Nc2nc3c([nH]2)c(=O)n(C)c(=O)n3C)ccc1O | 1.75 |
| CCCn1cnc2c(=S)nc(N)[nH]c21 | 0.75 |
| CCOC(=O)/C=C/c1nc(C(=O)OCC)c(C)c(=O)[nH]1 | 1.9 |
| O=[N+]([O-])c1ccc2[nH]c3nc4ccccc4nc3c2c1 | 0.55 |
| S=c1nc[nH]c2c1cnn2-c1ccccc1 | 0.25 |

Additional records follow:

| SMILES | T3 sensor activation Q score |
| --- | --- |
| Oc1[nH]c(N=C2N=c3ccccc3=N2)c2ccccc12 | -1.15 |
| COc1ccc([N+](=O)[O-])cc1NS(=O)(=O)c1ccc(C)cc1 | -0.7 |
| Cc1ccc(Nc2nnc(-c3ccc4c(c3)OCO4)o2)c(C)c1 | 0.95 |
| CN(c1cccnc1)c1ncnc2[nH]ncc12 | 0.2 |
| Cc1ccc(-c2cssc2=S)cc1 | 0 |
| COC1CC(C)C(OC)c2cc(O)cc(c2O)NC(=O)/C(C)=C/C=C\C(C)C(OC(N)=O)/C(C)=C/C(C)C1OC (stereo not drawn) | -0.85 |
| O=c1[nH]c(=S)c2[nH]c(=S)n(-c3ccccc3)c2[nH]1 | 0.05 |
| Nc1ccc(C(=O)Nc2ccc(NC(=O)c3ccco3)c(O)c2)cc1 | 1.85 |
| O=C(c1ccccc1)c1ccc[nH]1 | -0.75 |
| CSC1=NC=C(C#N)C2=NC(c3ccc(Cl)cc3)NN12 (stereo not drawn) | 0.1 |
| Cn1ncc2c(Nc3ccc(O)cc3)nc(Cl)nc21 | 1.6 |
| O=C(NC(=S)Nc1ccccn1)c1ccccc1 | -0.35 |
| C[C@@H]1C[C@H]2OC(=O)[C@@]3(C)CCC[C@@](C)([C@@H]23)[C@@]1(O)CCc1ccoc1 | 0.2 |
| Cc1cc(NC(=O)Nc2cc(F)ccc2F)no1 | 0.5 |
| O=C(CN1CCCC1)Nc1nc(-c2ccc(Cl)cc2)cs1 | 1.2 |
| COC(=O)c1ccccc1NCCO | -1.1 |
| O=S(=O)(Oc1ccc(Cl)cc1)c1cccc2cccnc12 | 0.05 |
| Cc1nn(-c2ccccc2)c2c1C(c1ccc([N+](=O)[O-])cc1)C(C#N)=C(N)O2 (stereo not drawn) | -0.15 |
| COc1cc2c(cc1OC)C(C1(O)CCCCC1)NCC2 (stereo not drawn) | -0.55 |
| Cc1ccc(S(=O)(=O)Oc2cc(N)c3c(n2)CCC3)cc1 | -0.15 |
| CC(C)=CCC1=C(OCC(=O)O)C(=O)c2ccccc2C1=O | 1.1 |
| Nc1ccc(C(=O)c2cccs2)cn1 | 1.15 |
| CC1(C)N=C(N)N=C(N)N1c1ccc(OCCCOc2ccccc2)c(Cl)c1 | -1.35 |
| O=C(Nc1ccc(Oc2ccc(NC(=O)Nc3ccccc3Cl)cc2)cc1)Nc1ccccc1Cl | -1.75 |
| COc1cc([N+](=O)[O-])ccc1NC(=O)Oc1ccc(NC(C)=O)cc1 | -0.9 |

Some of the entries so far, as labelled records.
Cn1c(=O)c2[nH]c(SCc3ccccn3)nc2n(C)c1=S
  T3 sensor activation Q score: 0.45
O=C(N(c1ccccc1)c1ccccc1)N(c1ccccc1)c1ccccc1
  T3 sensor activation Q score: 1

Continued.

| SMILES | T3 sensor activation Q score |
| --- | --- |
| Cc1nccnc1Sc1ccccc1 | -0.1 |
| COc1ccc2c(n1)Sc1nc3ccccc3nc1N2 | -0.35 |
| CC(C)n1cnc2c(=S)nc[nH]c21 | -0.2 |
| Oc1ccc2ccccc2c1N=Nc1ccc(F)cc1 | 1.3 |
| NC1=NC(c2ccc(Cl)cc2)N(c2ccc(S(N)(=O)=O)cc2)C(N)=N1 (stereo not drawn) | 1.05 |
| Cn1c(N)c(C(=O)/C=C/c2ccccc2)c(=O)[nH]c1=O | 1.7 |
| Cc1nnc(-n2cccc2)s1 | 0.3 |
| O=C(O)C1C2OC3C(OC(=O)C31)C2Br (stereo not drawn) | 1.4 |
| C#CCSc1nnnn1-c1ccc(Br)c(C)c1 | 0.9 |
| Cc1ccn(C)c(=N)c1 | 2 |
| COc1cc2c(NCCCCCO)ncnc2c(OC)c1OC | 1 |
| O=C(C=Cc1ccccc1Cl)c1ccc(O)cc1 | 0.45 |
| Cc1nc(NCc2ccccc2)c2cc[nH]c2n1 | 0.45 |
| O=P(O)(O)c1cc(-c2ccccc2)oc1-c1ccccc1 | -0.2 |
| Cc1cc(O)c(C(C)C)cc1NC(=O)Nc1cccc2ccccc12 | 0.45 |
| COc1cc(C(=O)C(=O)c2cc(OC)c(O)c(OC)c2)cc(OC)c1O | 0.7 |
| O=C1/C(=C\c2ccc([N+](=O)[O-])cc2)CCc2ccccc21 | 0.4 |
| OC(c1cc(-c2ccc(Cl)cc2)nc2ccccc12)C1CCCCN1 (stereo not drawn) | -1.1 |
| COc1ccc(Nc2cc(C)nc(N)n2)cc1 | -0.6 |
| NC(=O)c1ccccc1NC(=O)c1ccccc1Cl | -1.5 |
| CNc1ncnc2c1cnn2C1CCCCO1 (stereo not drawn) | -2.65 |
| Cc1cnc2c(N)cc(C)c(C)c2c1 | 0.4 |
| CC12CCC(C(NC(=S)NN)C1=O)C2(C)C (stereo not drawn) | -1.35 |
